Laboratory results published in PubChem BioAssay AID1671190 (National Center for Advancing Translational Sciences (NCATS), 2021).
Screen size: about 580,000 compounds; about 6,100 (1.1%) were called active. This list was built around the results that the source calls inconclusive (neither active nor inactive); the mix of calls is not that of the screen. Calls follow the shape of the dose curve; as a rule, active = well fitted inhibition curve with a large enough effect; inconclusive = small, poorly fitted or top-dose-only effect, or another doubt; inactive = no such curve, though single readings can be large or run the other way. A potency beside an inconclusive call is a rough fit, not a confirmed value.

Sequences of proteins named here, by UniProt entry; tags and fusion partners are left off. A change or cut given only in a name is not applied to a line headed by its entry.
UniProt P18054: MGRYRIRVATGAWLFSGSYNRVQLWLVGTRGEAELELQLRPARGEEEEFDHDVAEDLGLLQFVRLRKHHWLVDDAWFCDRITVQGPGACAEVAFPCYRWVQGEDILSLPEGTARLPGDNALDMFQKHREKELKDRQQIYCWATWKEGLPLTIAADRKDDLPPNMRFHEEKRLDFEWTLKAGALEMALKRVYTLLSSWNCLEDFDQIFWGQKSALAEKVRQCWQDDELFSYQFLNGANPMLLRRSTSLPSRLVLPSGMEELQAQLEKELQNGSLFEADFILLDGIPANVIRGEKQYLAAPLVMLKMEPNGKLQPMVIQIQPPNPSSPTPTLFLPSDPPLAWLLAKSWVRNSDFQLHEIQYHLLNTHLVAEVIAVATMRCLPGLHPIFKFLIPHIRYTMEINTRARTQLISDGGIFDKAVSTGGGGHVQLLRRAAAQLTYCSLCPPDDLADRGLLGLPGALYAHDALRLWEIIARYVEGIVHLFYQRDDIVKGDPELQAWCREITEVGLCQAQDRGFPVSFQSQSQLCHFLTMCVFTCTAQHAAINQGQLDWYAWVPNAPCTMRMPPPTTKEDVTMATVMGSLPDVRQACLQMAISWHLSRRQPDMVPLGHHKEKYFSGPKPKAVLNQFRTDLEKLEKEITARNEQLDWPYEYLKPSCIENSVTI

target: Polyunsaturated fatty acid lipoxygenase ALOX12 (Homo sapiens) (UniProt P18054); experiment: Primary qHTS assay for inhibitors of human arachidonate 12S-lipoxygenase (ALOX12): Round 2; conditions: purified 12hLO, xylenol orange hydroperoxide absorbance; activity change, negative = inhibition: at 108 µM (top of the series) unless noted
In short: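 Purified human 12hLO (150 nM final) in 25 mM Hepes, 0.01% Triton X-100, pH 7.0 was preincubated 15 min at room temperature with compound. Then 40 uM arachidonic acid was added, 30 min. Hydroperoxide was read by Fe-XO absorbance ratio 573/405 nm.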
% is scaled to controls: 0 for no effect and ±100 for the full control effect; potency is read from the fitted curve at half-maximal effect.

Compound | Potency | activity change, negative = inhibition
COc1ccc(CCNc2nc(-c3sc(C)nc3C)cs2)cc1OC | inconclusive: 126 µM [inhibitor, partial curve, poor fit] | –
CNC(=O)N1C[C@@H](CN(C)C)[C@H](NC(=O)c2cc(C)cc(C)c2)C1 | – | inactive: 4.9%
Cc1cc(C)cc(NCc2cc3c(cc2[N+](=O)[O-])OCO3)c1 | – | inactive: -18.7%
COc1ccc(OCc2n[nH]c(=S)n2Cc2ccco2)cc1 | inconclusive: 70.8 µM [inhibitor, partial curve, poor fit] | –
O=C(NNS(=O)(=O)c1ccc(Br)cc1)c1csnn1 | inconclusive: 0.562 µM [inhibitor, full curve, poor fit] | –
Nc1ccc(C(=O)N/N=C/c2cn(Cc3ccccc3F)c3ccccc23)cc1 | – | inactive: 479%
O=C(CCC(=O)c1ccc2c(c1)CCC2)NC1CCCc2ccccc21 (stereo not drawn) | inconclusive: 2.82 µM [inhibitor, full curve, poor fit] | –
CCOc1ccccc1C(N)=S | inconclusive: 89.1 µM [inhibitor, single point] | –
COc1ccc(N2CCCCS2(=O)=O)cc1S(=O)(=O)NCCc1ccccc1F | – | inactive: -3.69%
CCN1C(=O)N(Cc2cccc(OC)c2)C(=O)C12CCN(Cc1nc3ccccc3n1C)CC2 | – | inactive: 112%
CON(C)S(=O)(=O)c1cccc(C(=O)Nc2ccc(S(=O)(=O)NC3=NCCCCC3)cc2)c1 | – | inactive: -26.2%
CC(C(=O)NC1C=CS(=O)(=O)C1)N1C(=O)/C(=C/c2cccc(Cl)c2)SC1=S (stereo not drawn) | inconclusive: 31.6 µM [inhibitor, partial curve, poor fit] | –
CC(C)c1ccccc1OCC(O)Cn1cnc2c(cnn2-c2ccc(F)cc2)c1=O (stereo not drawn) | inconclusive: 39.8 µM [inhibitor, partial curve, poor fit] | –
COc1ccccc1-c1nc(S(=O)(=O)c2ccc(Cl)cc2)c(N(C)C)o1 | inconclusive: 2.24 µM [inhibitor, full curve, poor fit] | –
N[C@@]1(C(=O)O)CN[C@H](C(=O)O)C1 | inconclusive: 1.41 µM [inhibitor, full curve, poor fit] | –
Cc1cnc([N+](=O)[O-])n1CCOC(=O)c1cccc(F)c1 | – | inactive: -2.14%
Cc1ccc(CN(C)C(=O)CCc2nc3sc4c(c3c(=O)[nH]2)CCCC4)o1 | inconclusive: 44.7 µM [inhibitor, partial curve, poor fit] | –
CC1=CC(C)(C)N2C(=O)C(=O)c3cc(OC(=O)c4ccco4)cc1c32 | inconclusive: 44.7 µM [inhibitor, partial curve, poor fit] | –
O=C(NC[C@H]1OC[C@@H](NCc2ccccc2F)[C@@H]1O)c1cccs1 | – | inactive: 0.879% [at 176 µM]
CCN1C(=O)[C@H]2[C@@H](c3ccc(OC)cc3)N[C@]3(CCCN(Cc4ccc(C(F)(F)F)cc4)C3=O)[C@H]2C1=O | active: 31.6 µM | –
O=S(=O)(c1ccc2c(c1)CCC2)N1CCNCC1 | – | inactive: -0.144%
NC(=O)C1CCN(C(=O)C23CC4CC(CC(C4)C2)C3)CC1 | – | inactive: 0% [at 57.4 µM]

Among those listed so far, 2 have a nitro group on carbon:
Compound | Potency | activity change, negative = inhibition
Cc1cc(C)cc(NCc2cc3c(cc2[N+](=O)[O-])OCO3)c1 | – | inactive: -18.7%
Cc1cnc([N+](=O)[O-])n1CCOC(=O)c1cccc(F)c1 | – | inactive: -2.14%

The listing continues.

Compound | Potency | activity change, negative = inhibition
CCC(c1nnnn1Cc1ccco1)N(Cc1ccccc1OC)Cc1cc2cc(C)ccc2[nH]c1=O (stereo not drawn) | inconclusive: 35.5 µM [inhibitor, partial curve, poor fit] | –
COC(=O)C1CCN(C(=O)COC(=O)c2cc(S(=O)(=O)N3CCOCC3)ccc2C)CC1 | inconclusive: 112 µM [inhibitor, single point] | –
COc1ccc(F)cc1S(=O)(=O)Nc1ccc2c(c1)OCCO2 | – | inactive: 270%
COc1ccc(/C=C(\C#N)C(=O)Nc2cc(C)c(Cl)cc2OC)cc1O | inconclusive: 89.1 µM [inhibitor, single point] | –
Cc1c(Br)c2ccccc2n1CC(=O)NCC(=O)N(C)C | inconclusive: 141 µM [inhibitor, single point] | –
O=C(NC1CCCCC1)C(c1ccncc1)N(Cc1ccc(F)cc1)C(=O)c1ccccn1 (stereo not drawn) | inconclusive: 39.8 µM [inhibitor, partial curve, poor fit] | –
CC(=O)OCC(OC(C)=O)C(OC(C)=O)C(OC(C)=O)C(=O)Nc1cccc(C)c1 (stereo not drawn) | inconclusive: 112 µM [inhibitor, single point] | –
Cc1cc(OC(=O)c2ccccc2C(F)(F)F)c([N+](=O)[O-])c(=O)[nH]1 | inconclusive: 39.8 µM [inhibitor, partial curve] | –
COC(=O)c1scc(-c2ccc(C)cc2)c1S(=O)(=O)N1CCN(c2cccc(OC)c2)CC1 | inconclusive: 11.2 µM [inhibitor, full curve, poor fit] | –
COc1cc(C)ccc1NC(=O)Cc1csc(NC(=O)Nc2ccccc2OC)n1 | – | inactive: -8.17%
Cc1ccc(Sc2c(C)nn(C(C)(C)C)c2OC(=O)C(C)(C)C)cc1 | – | inactive: -15.9%
Cc1ccsc1C1Nc2ccc3ncccc3c2C2=C1C(=O)CCC2 (stereo not drawn) | inconclusive: 44.7 µM [inhibitor, partial curve] | –
Cc1ccc2nc(/C(C#N)=C\c3ccc(N4CCCCC4)c([N+](=O)[O-])c3)[nH]c2c1 | inconclusive: 89.1 µM [inhibitor, partial curve, poor fit] | –
COc1ccc(CC(=O)Nc2cccc(S(=O)(=O)N3CCCCCC3)c2)cc1OC | – | inactive: -6.77%
O=C(CC12CC3CC(CC(C3)C1)C2)NC(=S)NCc1ccco1 | active: 28.2 µM | –
CN(Cc1ccccc1)CC(C#N)C(O)c1ccncc1 (stereo not drawn) | – | inactive: 45.5%
CCOC(=O)c1ccc(Nc2nc(N3CCOCC3)nc(N3CCOCC3)n2)cc1 | inconclusive: 31.6 µM [inhibitor, partial curve, poor fit] | –
CC(C)(C)c1cc(CCC(=O)NCc2cccnc2)cc(C(C)(C)C)c1O | – | inactive: -1.53%
CCCn1nnnc1SCC(=O)Nc1nnc(CC)s1 | inconclusive: 3.16 µM [inhibitor, full curve, poor fit] | –
O=C(NCc1ccco1)c1ccc2c(c1)N(Cc1ccc(Cl)cc1)C(=O)c1ccccc1S2=O (stereo not drawn) | inconclusive: 10 µM [inhibitor, partial curve, poor fit] | –
CCN(CC)c1nc2c(c(=O)[nH]c(=O)n2C)n1CC(O)COc1ccc(C)cc1 (stereo not drawn) | inconclusive: 31.6 µM [inhibitor, partial curve, poor fit] | –
